# Experimental data taken from US20180117171A1, “IMMUNOCONJUGATES FOR PROGRAMMING OR REPROGRAMMING OF CELLS” (President and Fellows of Harvard College, priority 2015, published 2018).
# Not every detail of the peptide structures is certain; ends, links or a residue may be inferred.
# Tested on: CD8+ T cells from OT-I mice
# Assay: OT-I: DC co-culture, CFSE T cell proliferation
# Format: cell-based, mouse
# Conditions: 1 hour pre-treatment, 3 days co-culture
# Method: Cytotoxic T-lymphocytes (CTLs) were purified using magnetic beads (Miltenyi Biotec) from the spleens of the T cell receptor (TCR) transgenic OT-I mice (Jackson Laboratories) following the manufacturer's protocol. OT-I mice express a transgenic T cell receptor that recognizes ovalbumin residues 257-264 in the context of H2Kb. The CTLs were cultured with a 1:1 ratio with BMDC for 3 days at 37° C. in R10 media. […] The cells were washed two times before culturing with the T cells. Dexamethasone-TRP-2 was made following the same solid phase method as described above (Peptide synthesizer: CS Bio, DIPEA, Piperidine, TFA, and NMP: Advanced ChemTech, DCM: Sigma, amino acids and resin: Peptides International, dexamethasone hemisuccinate: Steraloids). Three days later, the cells were harvested and analyzed by flow cytometry using the BD LSR II Fortessa. The plots for flow cytometry were obtained using FCS Express.
# Carboxyfluorescein succinimidyl ester (CFSE) labeled CD8+ T cells from TCR transgenic OT-I mice were cultured with BMDC for 3 days. […] Three days later, the cells were analyzed by flow cytometry.
structure (smiles),measurement,value
CC(C)C[C@H](NC(=O)[C@H](Cc1c[nH]c2ccccc12)NC(=O)[C@@H](NC(=O)[C@H](Cc1ccccc1)NC(=O)[C@H](Cc1ccccc1)NC(=O)[C@H](CC(=O)O)NC(=O)[C@H](Cc1ccc(O)cc1)NC(=O)[C@@H](NC(=O)[C@H](CO)NC(=O)CCC(=O)OCC(=O)[C@@]1(O)[C@H](C)C[C@H]2[C@@H]3CCC4=CC(=O)C=C[C@]4(C)[C@@]3(F)[C@@H](O)C[C@@]21C)C(C)C)C(C)C)C(=O)O [dexamethasone-TRP2],"OT-I T cell proliferation, BMDC treated with ovalbumin plus compound",proliferation was unchanged
